Values from PubChem BioAssay AID1224830 (NIAID, 2016).
The deposit covers about 18,000 reagents; below is a random part of them. Of all reagents, about 2,900 (16%) got an active call. 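Calls are made per well; low scores hint the gene aids the LPS response, high scores that it dampens it.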 Repeated entries: four replicate wells of each siRNA pool.

Aim: 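Host factors that control LPS-induced TNF expression in human macrophages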 (primary screen)
System: human THP-1 monocytic leukaemia cells, TNF dual-luciferase reporter clone, PMA-differentiated to macrophage-like cells
Knock-down reagent: siRNA pool against human genes, 50 nM
Duration: LPS for 4 h, given about 3 days after siRNA transfection
Treatment: bacterial LPS (TLR4 ligand), 10 ng/ml
Measured: 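Ratio of firefly to renilla light, scaled to the plate median and expressed as a robust z-score per replicate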
Reading the numbers: TNF reporter robust z-score: higher = stronger TNF reporter response to LPS
Call rule: 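Each well counts as active if its z-score is over 2.8 or under -1.5; controls are left without a call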

target gene,TNF reporter robust z-score,call
UNC93B1,-0.28,inactive
UNC93B1,-0.46,inactive
UNC93B1,-1.1,inactive
UNC93B1,-0.32,inactive
CDC16,-0.1,inactive
CDC16,0.07,inactive
CDC16,0.27,inactive
CDC16,0.53,inactive
H2AC13,2.5,inactive
H2AC13,2.24,inactive
H2AC13,1.9,inactive
H2AC13,2.62,inactive
MAF1,-0.96,inactive
MAF1,-0.99,inactive
MAF1,-0.9,inactive
MAF1,0.23,inactive
MOGAT3,2.15,inactive
MOGAT3,1.01,inactive
MOGAT3,1.15,inactive
MOGAT3,0.94,inactive
ILKAP,-0.24,inactive
ILKAP,1.01,inactive
ILKAP,2.04,inactive
ILKAP,2.82,active
CARD17P,0.65,inactive
CARD17P,-0.15,inactive
CARD17P,0.35,inactive
CARD17P,0.22,inactive
UGT1A5,,inactive
UGT1A5,1.89,inactive
UGT1A5,1.4,inactive
UGT1A5,1.77,inactive
UGT1A5,2.73,inactive
HEATR4,5.14,active
HEATR4,5.06,active
HEATR4,3.59,active
HEATR4,4.91,active
NUP58,0.44,inactive
NUP58,0.56,inactive
NUP58,0.06,inactive
NUP58,0.16,inactive
CCDC112,1.18,inactive
CCDC112,0.59,inactive
CCDC112,1.28,inactive
CCDC112,-0.52,inactive
